Measured values taken from PubChem BioAssay AID493014 (National Center for Advancing Translational Sciences (NCATS), 2011).
Some of the results follow. The main result of the screen is listed elsewhere. These columns were measured beside it and carry no call. The list favours compounds with an active or inconclusive main result. Potencies come from curve fits of mixed quality, noted in brackets.

Assay: qHTS Assay to Find Inhibitors of Chronic Active B-Cell Receptor Signaling
Conditions: ABC-DLBCL IkBa-CBG/CBR reporter, luminescence ratio (green luciferase fused to IkBa over red control in TMD8 lymphoma cells), 4 h
Procedure, shortened: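 TMD8 ABC-DLBCL cells carrying doxycycline-inducible green luciferase fused to IkappaBalpha plus unfused red luciferase were exposed to compounds (up to 46 uM) for 4 hrs at 37C. Activity came from the overlap-corrected green/red luminescence ratio.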

[1] = measured here: CBR red luminescence, cell number
[2] = measured here: IkBa-CBG green luminescence

SMILES: C/C(=N\N=C1\NC(=O)CS1)c1cccs1
- AC50 [1]: 22.4 µM [rising, single point]

SMILES: COc1ccc(NC(=O)CCC(=O)NCCO)cc1
- AC50 [1]: 3.98 µM [rising, full curve, poor fit]

SMILES: COC(=O)c1ccccc1NC(=O)C1CC=CCC1C(=O)O (stereo not given)
- AC50 [1]: 10.3 µM [falling, partial curve]

SMILES: C/C(=N\NC(=O)c1nn(C)c(C)c1Br)c1cccc(NC(=O)c2ccoc2C)c1
- AC50 [1]: 3.66 µM [falling, single point]

SMILES: Cc1occc1C(=O)N/N=C/c1cccs1
- AC50 [1]: 10 µM [falling, partial curve]

SMILES: O=C(O)CCC(=O)Nc1cccc2cccnc12
- AC50 [1]: 15.8 µM [falling, single point]

SMILES: O=C(Nc1ccc(Cl)cc1)C1CCCN(c2cnccn2)C1 (stereo not given)
- AC50 [1]: 11.2 µM [rising, partial curve, poor fit]

SMILES: COc1cc(Cl)c(C)cc1NC(=O)COC(=O)c1cnc(C)cn1
- AC50 [1]: 29.1 µM [rising, single point]

SMILES: CCNc1nc(NCC)nc(OCC(=O)O)n1
- AC50 [1]: 6.31 µM [rising, single point]

SMILES: O=C(NCCCCc1ccccc1)C1CC(c2cccc(F)c2)=NO1 (stereo not given)
- AC50 [1]: 5.62 µM [falling, single point]

SMILES: O=C(Nc1ccc(Cl)cc1)Nc1ccc(S(=O)(=O)Nc2ncccn2)cc1
- AC50 [1]: 2.51 µM [rising, partial curve, poor fit]

SMILES: CC(C)(C)NC(=O)NC(=O)CN1CCN(c2ncc(C(F)(F)F)cc2Cl)CC1
- AC50 [1]: 2.31 µM [falling, partial curve]

SMILES: Cc1cc(=O)oc2cc(OC(=O)c3ccccc3)ccc12
- AC50 [1]: 0.282 µM [rising, full curve, poor fit]

SMILES: Cc1cc(=O)[nH]c(SCC(=O)c2ccccc2)c1C#N
- AC50 [1]: 4.47 µM [falling, full curve]

SMILES: Nc1nc(Nc2ccccc2)sc1C(=O)c1ccccc1
- AC50 [1]: 11.2 µM [falling, partial curve]

SMILES: c1ccc(CN2CCC(Nc3nc(-c4cccs4)nc4ccccc34)CC2)cc1
- AC50 [1]: 22.4 µM [falling, single point]

SMILES: CCOc1ccc(N=c2oc3cc(O)ccc3cc2C(=O)NCC2CCCO2)cc1 (stereo not given)
- AC50 [1]: 1.3 µM [falling, partial curve]

SMILES: CCSc1nnc(C)n1-c1ccc(C(=O)O)cc1
- AC50 [1]: 6.51 µM [falling, single point]

SMILES: COC(=O)Cc1[nH]n(-c2nc3ccccc3s2)c(=O)c1C(C)=Nc1ccc(C)cc1
- AC50 [1]: 7.94 µM [falling, partial curve, poor fit]

SMILES: COc1cc(OC)c2c(c1)OC(=O)CC2c1cc(OC)c(OC)c(OC)c1 (stereo not given)
- AC50 [2]: 13 µM [falling, partial curve]

SMILES: Cc1ccccc1OC(=O)c1cccnc1
- AC50 [1]: 5.01 µM [rising, full curve, poor fit]

SMILES: Cc1nnc(CN(C)C(=O)c2cc(COc3ccc(C)c(C)c3)on2)o1
- AC50 [1]: 14.1 µM [falling, partial curve, poor fit]

SMILES: Cc1[nH]n(-c2ccccc2)c(=S)c1C=NCCCN=Cc1c(C)[nH]n(-c2ccccc2)c1=S
- AC50 [2]: 4.61 µM [falling, single point]

SMILES: O=C(NCCc1ccco1)C(=O)NCC1OCCCN1S(=O)(=O)c1ccc(F)cc1 (stereo not given)
- AC50 [1]: 35.5 µM [rising, single point]

SMILES: CC(=O)SC1CC(=O)N(c2c(C)cccc2C)C1=O (stereo not given)
- AC50 [1]: 7.08 µM [falling, full curve]

SMILES: O=C(N=Nc1c(O)[nH]c2ccccc12)c1cccc(S(=O)(=O)Nc2ccccc2Cl)c1
- AC50 [1]: 4.47 µM [falling, partial curve]

SMILES: CCN(CC)C(=O)c1sc(NC(=O)C(C)C)c(C#N)c1C
- AC50 [1]: 31.6 µM [rising, single point]
- AC50 [2]: 1.41 µM [rising, partial curve, poor fit]

SMILES: Cn1nnnc1SC1CC(=O)N(c2ccccc2)C1=O (stereo not given)
- AC50 [1]: 35.5 µM [falling, single point]
- AC50 [2]: 31.6 µM [rising, partial curve, poor fit]

SMILES: CS(=O)(=O)Nc1cccc2cccnc12
- AC50 [1]: 28.2 µM [rising, single point]
- AC50 [2]: 28.2 µM [falling, single point]

SMILES: COc1cc(OC)c(NC(=O)C2CCCO2)cc1Cl (stereo not given)
- AC50 [1]: 35.5 µM [rising, single point]

SMILES: Cc1nnc(NC(=O)c2ccc(Br)cc2)s1
- AC50 [1]: 0.164 µM [rising, full curve, poor fit]

SMILES: C/C(=N\NC(=O)c1cccnc1)c1ccc(OC2OCCOC2Oc2ccc(/C(C)=N/NC(=O)c3cccnc3)cc2)cc1 (stereo not given)
- AC50 [1]: 35.5 µM [falling, single point]

SMILES: COc1cc([N+](=O)[O-])ccc1NC(=O)NNC(=O)c1sccc1C
- AC50 [1]: 8.91 µM [falling, partial curve]

SMILES: COC(=O)c1sccc1NC(=O)CSCCc1ccccn1
- AC50 [1]: 12.6 µM [falling, single point]

SMILES: CC(C)CC(C(=O)NC(C)(C)C)N(Cc1ccccc1Cl)C(=O)c1snc(C(N)=O)c1N (stereo not given)
- AC50 [1]: 2 µM [rising, partial curve]

SMILES: O=C(CCN1C(=O)/C(=C/c2cccs2)SC1=S)NNC(=O)c1cccc(O)c1
- AC50 [1]: 14.1 µM [falling, partial curve, poor fit]

SMILES: CCOC(=O)C(=CN=C(N)Nc1nc2ccccc2o1)C(=O)OCC
- AC50 [1]: 1.12 µM [falling, full curve]

SMILES: COc1cc(F)c(C2=CC(=O)CC(C)(C)C2)cc1F
- AC50 [1]: 3.26 µM [rising, partial curve, poor fit]

SMILES: OCCNc1nc(Nc2cccc(O)c2)nc2ccccc12
- AC50 [1]: 17.8 µM [falling, single point]

SMILES: O=c1[nH]c(=O)n(Cc2ccco2)c2c1C(C(F)(F)F)(C(F)(F)F)N=C(Cc1ccccc1)N2
- AC50 [1]: 3.98 µM [rising, full curve, poor fit]

SMILES: CC1CC(C)CN(CCOc2cccc(Cl)c2Cl)C1 (stereo not given)
- AC50 [1]: 18.4 µM [falling, partial curve, poor fit]

SMILES: CCOC(=O)C1CCN(S(=O)(=O)c2ccc(-c3cc(C(F)(F)F)n(C)n3)s2)CC1
- AC50 [1]: 17.8 µM [falling, partial curve, poor fit]
